# Test results reported in PubChem BioAssay AID2685 (National Center for Advancing Translational Sciences (NCATS), 2010).
# This is one part of the list. Further columns of the screen follow, without active or inactive calls. The list favours compounds with an active or inconclusive main result. Potencies come from curve fits of mixed quality, noted in brackets.
# Test: qHTS Assay for Lipid Storage Modulators in Drosophila S3 Cells;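 as to cell number change: cells counted by Cell Tracker Red CMTPX staining in the red channel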
# Conditions: BODIPY lipid droplet fluorescence, 18-24 h; for cell number change: measured here: cell count max response, cells fed with added oleic acid
# Outline: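 Laser-scanning cytometry quantifies lipid droplet accumulation (500–530 nm total intensity; droplet/cell object ratio) in oleic acid-fed (400 uM added) Drosophila S3 cells treated with a concentration series. 20 uM Triacsin C defined 100% inhibition.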
# [1] = measured here: lipid fluorescence (Fed channel) AC50, cells fed with added oleic acid
# [2] = measured here: cell number channel AC50, cells fed with added oleic acid
Structure (SMILES),cell number change [%],AC50 [1],AC50 [2]
COc1ccccc1NC(=O)OC(C)c1ccc(Cl)cc1 (stereo unspecified),13.7,"20.6 µM [rising, single point]",–
CCOC(=O)c1sc(NC(=O)C2CC2)nc1C,0.647,"3.66 µM [rising, single point]",–
CCc1cc(CC)c(/C=N/NC(N)=O)c(CC)c1,-26.1,"29.1 µM [falling, single point]",–
O=C(N/N=C/C=C/c1ccc([N+](=O)[O-])cc1)c1cccs1,-5.38,–,–
CN(C)CCn1c(=S)[nH]c2ccccc2c1=O,20.1,"0.58 µM [falling, single point]",–
CN(CC(=O)Nc1ccccc1Cl)C(=O)COC(=O)/C=C/c1ccccc1,21,–,–
COc1cccc(C(=O)NCCNC(=O)c2ccccn2)c1,-28.9,"5.62 µM [falling, single point]","0.00411 µM [falling, full curve, poor fit]"
COc1ccc(/C=N/NC(=O)c2cc[n+]([O-])cc2)cc1,16.9,"29.1 µM [falling, single point]",–
O=C(C1=NN(c2ccccc2)C2C(=O)N(c3ccccc3)C(=O)C12)c1ccccc1 (stereo unspecified),3.3,"0.651 µM [falling, single point]",–
COc1ccccc1/C=C/C(=O)NNC(=O)c1cc(C)oc1C,-25,–,"0.146 µM [falling, full curve, poor fit]"
CCCOc1ccc(-c2c(C(=O)N/N=C/c3cccnc3)nnn2-c2nonc2N)cc1,31.7,–,"29.1 µM [rising, single point]"
C[C@@H](NC(=O)c1[nH]cnc1C(=O)Nc1nccs1)c1ccccc1,9.12,"1.16 µM [rising, single point]",–
CCc1nc2c(cnn2-c2ccc(Cl)cc2)c(=O)n1-c1ccc2c(c1)OCCO2,36.2,"6.51 µM [rising, partial curve]",–
Nc1c(C(=O)CSc2nccn2-c2ccc(Cl)cc2)c(=O)[nH]c(=O)n1C1CC1,-10.8,"0.146 µM [falling, full curve, poor fit]",–
O=C(c1cc2c(F)cccc2s1)N1CCCC1,–,"29.1 µM [falling, single point]",–
C/C(=N\NC(=O)Cc1ccc(Br)cc1)c1cccnc1,7.57,–,–

# Some values from the results shown:
# Value for COc1ccccc1NC(=O)OC(C)c1ccc(Cl)cc1 (stereo unspecified) under AC50 [1]: 20.6 µM [rising, single point]
# Value for CN(C)CCn1c(=S)[nH]c2ccccc2c1=O under cell number change [%]: 20.1

# Later entries

Structure (SMILES),cell number change [%],AC50 [1],AC50 [2]
C/C(=N/Nc1ccccc1C(=O)O)c1cccs1,4.56,–,"0.164 µM [rising, full curve, poor fit]"
O=S(=O)(NCCS(=O)(=O)N1CCN(c2ccccc2)CC1)c1ccc(F)cc1,102,–,"18.4 µM [rising, single point]"
COC(=O)CN(c1ccccc1[N+](=O)[O-])S(=O)(=O)c1ccccc1,-52.9,"8.2 µM [falling, partial curve]","18.4 µM [falling, partial curve]"
COc1ccc(CCN2C(=O)c3ccccc3NC2c2cc(Cl)c(O)c(OC)c2)cc1 (stereo unspecified),-7.14,–,–
CCOc1ccc(N2C(=O)CC(N3CCN(c4ccccc4OC)CC3)C2=O)cc1 (stereo unspecified),25.3,"16.4 µM [falling, partial curve, poor fit]",–
Cc1c(N(C)CS(=O)(=O)O)c(=O)n(-c2ccccc2)n1C,-37.6,"25.9 µM [falling, single point]","23.1 µM [falling, single point]"
Cc1cccc(/C=C2\Oc3cc(OS(C)(=O)=O)ccc3C2=O)c1,7.32,–,–
CCC1CCCCN1CCCNC(=O)C1CCN(c2nnc(-n3cccc3)s2)CC1 (stereo unspecified),3.3,"29.1 µM [rising, single point]",–
Cc1ccccc1-c1nc(CS(=O)(=O)CC(=O)NCCCN2CCN(C)CC2)c(C)o1,2.29,–,–
Cc1ccc(N2C(=O)c3cccc4c(N5CCN(C)CC5)ccc(c34)C2=O)c2cccnc12,15.9,–,–
O=C(NC1(Cc2ccccc2)CCN(CCCc2ccccc2)C1=O)c1ccccc1 (stereo unspecified),-10.5,"16.4 µM [falling, single point]",–
O=C(O)CC(=O)Nc1ccc(Oc2ccc(C(F)(F)F)cn2)c(Cl)c1,-35.7,"16.4 µM [falling, single point]",–
COc1ccc(N2C(=O)CS/C2=C\[N+](=O)[O-])cc1,7.53,"2.91 µM [rising, single point]",–
O=C(CCN1C(=O)c2ccccc2C1=O)Nc1ccc(F)cc1,-10.2,"0.651 µM [falling, full curve, poor fit]","0.231 µM [falling, full curve, poor fit]"
NC(=O)c1ccc(F)cc1,-14.1,"0.184 µM [falling, full curve, poor fit]",–
CC(C)OC(=O)CSc1nc(N)c(C#N)cc1C#N,-4.31,"0.651 µM [falling, full curve]","0.731 µM [falling, full curve]"
